# From patent US11248246B2, “Beta-glucosidase for producing glucose and laminarioligosaccharide from sea weed” (Korea University Research and Business Foundation, priority 2018, dated 2022)
# At least one read-out could not be matched to a standard name with certainty.
# B1: Bgl1B: β-glucosidase having the amino acid sequences of SEQ ID NO: 1, from Saccharophagus degradans 2-40^T, with exo-type glucanase and transglycosylase activities (protein)
# chain: MNRLTLPPSSRLRSKEFTFGVATSSYQIEGGIDSRLPCNWDTFCEQPNTIIDNTNGAIACDHINRWQDDIELIANLGVDAYRFSIAWGRVINLDGSLNNEGVTFYKNILTKLREKNLKAYITLYHWDLPQHLEDAGGWLNRDTAYKFRDYVNLITQALDDDVFCYTTLNEPFCSAYLGYEIGVHAPGIKDLASGRKAAHHLLLAHGLAMQVLRKNCPNSLSGIVLNMSPCYAGSNAQADIDAAKRADDLLFQWYAQPLLTGCYPDAINSLPDNAKPPICEGDMALISQPLDYLGLNYYTRAVFFADGNGGFTEQVPEGVELTDMGWEVYPQGLTDLLIDLNQRYTLPPLLITENGAAMVDELVNGEVNDIARINYFQTHLQAVHNAIEQGVDVRGYFAWSLMDNFEWALGYSKRFGITYVDYQTQKRTLKASGHAFAEFVSSRS
# modifications: Saccharophagus degradans 2-40T
# How the values were obtained:
# Assay type in all cases: biochemical
# [1] = Enzymatic reaction rate (Lineweaver-Burk), lactose; details: substrate Lactose (β-1,4), 0.1-0.4% (w/v), pH 6, 40° C.
# [2] = Enzymatic reaction rate (Lineweaver-Burk), gentiobiose; details: substrate Gentiobiose (β-1,6), 0.1-0.4% (w/v), pH 6, 40° C.
# [3] = Enzymatic reaction rate (Lineweaver-Burk), agarobiose; details: substrate Agarobiose (β-1,4), 0.1-0.4% (w/v), pH 6, 40° C.
# [4] = Enzymatic reaction rate (Lineweaver-Burk), cellobiose; details: substrate Cellobiose (β-1,4), 0.1-0.4% (w/v), pH 6, 40° C.
# [5] = Enzymatic reaction rate (Lineweaver-Burk), laminaribiose; details: substrate Laminaribiose (β-1,3), 0.1-0.4% (w/v), pH 6, 40° C.
# Description: To confirm the enzymatic reaction rate of the Bgl1B protein for various substrates, the Bgl1B protein was allowed to react with each substrate at various concentrations of 0.1-0.4% (w/v) at pH 6 and 40° C. Vmax, Km, and kcat, which are parameters related to an enzymatic reaction rate, were determined from the Lineweaver-Burk plot.
molecule,measurement,setting,value
B1,kcat/Km,[1],0.041 mM⁻¹ s⁻¹
same,kcat/Km,[2],0.066 mM⁻¹ s⁻¹
same,kcat/Km,[3],0.0037 mM⁻¹ s⁻¹
same,kcat/Km,[4],0.65 mM⁻¹ s⁻¹
same,kcat/Km,[5],92 mM⁻¹ s⁻¹
